These are yes or no findings as the source states them, for the method shown. In cells and extracts the contact can be indirect. For part of these data: Where a sequence is shown, tags or fusion partners need not be part of it.
Assays:
[1] = target: T1, Myc-YTHDF2-Δ101-168 (human) (UniProt Q9Y5A9); experiment: co-IP; IP with α-Myc antibody from extracts of HEK293T cells transfected with Myc-YTHDF2 (WT or variant), western blot; DMSO or MG132 12 h (Fig. 3b), two days after transfection (Fig. 4a)
T1 sequence: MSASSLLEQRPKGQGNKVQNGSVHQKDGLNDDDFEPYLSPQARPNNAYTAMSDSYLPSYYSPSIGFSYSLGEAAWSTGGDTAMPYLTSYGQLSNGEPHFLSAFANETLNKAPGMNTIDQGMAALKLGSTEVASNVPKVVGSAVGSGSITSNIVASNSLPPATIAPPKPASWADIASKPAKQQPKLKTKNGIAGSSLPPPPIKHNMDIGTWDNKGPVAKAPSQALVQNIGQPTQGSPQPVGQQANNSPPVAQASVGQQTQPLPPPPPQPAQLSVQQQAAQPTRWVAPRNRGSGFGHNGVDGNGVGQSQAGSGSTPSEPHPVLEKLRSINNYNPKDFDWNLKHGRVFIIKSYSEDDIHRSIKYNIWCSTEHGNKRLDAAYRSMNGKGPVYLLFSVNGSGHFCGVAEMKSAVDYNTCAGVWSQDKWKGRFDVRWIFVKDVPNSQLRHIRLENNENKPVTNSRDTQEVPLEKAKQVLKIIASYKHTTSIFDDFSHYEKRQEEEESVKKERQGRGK

Protein sequences, listed by entry. Tags and fused reporters are not part of them.
UniProt P68104: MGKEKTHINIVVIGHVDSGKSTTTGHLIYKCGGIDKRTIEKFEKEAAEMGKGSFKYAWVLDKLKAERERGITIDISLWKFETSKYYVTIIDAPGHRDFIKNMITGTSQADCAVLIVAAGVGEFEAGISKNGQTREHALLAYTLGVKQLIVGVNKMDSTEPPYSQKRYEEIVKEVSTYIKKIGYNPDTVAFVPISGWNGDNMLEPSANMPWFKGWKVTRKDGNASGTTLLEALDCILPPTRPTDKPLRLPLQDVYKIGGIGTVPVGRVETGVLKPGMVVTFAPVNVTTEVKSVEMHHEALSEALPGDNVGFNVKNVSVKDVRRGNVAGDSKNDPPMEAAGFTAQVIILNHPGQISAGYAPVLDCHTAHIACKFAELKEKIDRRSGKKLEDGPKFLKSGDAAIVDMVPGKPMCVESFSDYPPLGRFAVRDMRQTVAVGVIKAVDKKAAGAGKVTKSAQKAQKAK
UniProt Q14203: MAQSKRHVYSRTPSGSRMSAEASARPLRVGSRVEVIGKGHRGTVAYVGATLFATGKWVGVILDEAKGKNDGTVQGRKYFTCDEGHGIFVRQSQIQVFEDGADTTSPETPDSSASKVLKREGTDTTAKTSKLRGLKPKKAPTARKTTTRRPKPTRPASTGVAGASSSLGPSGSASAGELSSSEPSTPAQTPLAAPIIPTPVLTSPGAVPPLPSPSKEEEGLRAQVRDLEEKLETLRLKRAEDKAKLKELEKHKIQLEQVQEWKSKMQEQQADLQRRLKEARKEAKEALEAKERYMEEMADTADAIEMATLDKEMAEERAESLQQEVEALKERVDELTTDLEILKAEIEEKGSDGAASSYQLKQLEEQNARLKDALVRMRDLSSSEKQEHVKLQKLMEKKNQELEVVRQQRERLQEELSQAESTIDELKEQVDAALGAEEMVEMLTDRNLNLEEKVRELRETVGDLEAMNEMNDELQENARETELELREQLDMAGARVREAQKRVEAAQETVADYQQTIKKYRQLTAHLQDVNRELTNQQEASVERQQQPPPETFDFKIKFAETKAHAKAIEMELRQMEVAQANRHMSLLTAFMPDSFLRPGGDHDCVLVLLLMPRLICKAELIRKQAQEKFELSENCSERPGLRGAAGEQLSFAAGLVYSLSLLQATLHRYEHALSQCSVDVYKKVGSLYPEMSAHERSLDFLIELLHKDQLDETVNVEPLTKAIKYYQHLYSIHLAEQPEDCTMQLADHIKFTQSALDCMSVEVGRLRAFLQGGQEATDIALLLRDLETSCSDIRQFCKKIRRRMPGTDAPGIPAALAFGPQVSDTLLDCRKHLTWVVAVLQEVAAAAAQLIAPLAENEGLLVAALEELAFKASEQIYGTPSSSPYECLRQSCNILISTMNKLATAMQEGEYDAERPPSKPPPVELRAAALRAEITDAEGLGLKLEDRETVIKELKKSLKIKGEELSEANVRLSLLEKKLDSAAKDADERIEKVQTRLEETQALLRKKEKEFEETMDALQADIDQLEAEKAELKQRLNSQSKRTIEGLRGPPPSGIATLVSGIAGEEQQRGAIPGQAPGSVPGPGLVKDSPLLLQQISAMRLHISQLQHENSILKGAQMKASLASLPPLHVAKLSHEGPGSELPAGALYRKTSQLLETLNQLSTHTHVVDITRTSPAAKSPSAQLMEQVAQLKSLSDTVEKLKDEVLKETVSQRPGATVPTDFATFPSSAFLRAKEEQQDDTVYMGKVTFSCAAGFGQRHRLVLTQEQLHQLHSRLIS

[2] = target: T2, Myc-YTHDF2-Δ101-200 (human) (UniProt Q9Y5A9); experiment: as above
T2 sequence: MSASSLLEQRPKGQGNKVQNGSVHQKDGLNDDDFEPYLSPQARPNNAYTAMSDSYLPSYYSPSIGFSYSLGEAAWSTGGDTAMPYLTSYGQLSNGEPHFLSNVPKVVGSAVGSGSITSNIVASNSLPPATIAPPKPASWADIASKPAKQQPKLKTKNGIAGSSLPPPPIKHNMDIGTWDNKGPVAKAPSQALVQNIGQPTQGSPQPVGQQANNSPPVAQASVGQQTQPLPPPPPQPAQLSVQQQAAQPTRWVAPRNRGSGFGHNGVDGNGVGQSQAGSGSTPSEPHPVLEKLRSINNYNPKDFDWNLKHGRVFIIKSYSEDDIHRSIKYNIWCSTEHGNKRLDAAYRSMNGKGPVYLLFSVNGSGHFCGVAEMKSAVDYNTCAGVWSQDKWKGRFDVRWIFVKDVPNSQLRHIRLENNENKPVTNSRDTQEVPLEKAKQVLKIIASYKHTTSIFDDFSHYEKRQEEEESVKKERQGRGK

[3] = target: T3, YTHDF3, endogenous (human (endogenous in HEK293T)) (UniProt Q7Z739); experiment: co-IP; IP with an antibody against endogenous YTHDF1, YTHDF2 or YTHDF3 from HEK293T extracts in NET-2 buffer (50 mM Tris-HCl pH 7.4, 150 mM NaCl, 0.05% NP-40), 3 h at 4 °C, western blot; cells treated with MG132 12 h (Fig. 2f), or with DMSO or MG132, with or without UPF1 siRNA (Fig. 3a)
T3 sequence: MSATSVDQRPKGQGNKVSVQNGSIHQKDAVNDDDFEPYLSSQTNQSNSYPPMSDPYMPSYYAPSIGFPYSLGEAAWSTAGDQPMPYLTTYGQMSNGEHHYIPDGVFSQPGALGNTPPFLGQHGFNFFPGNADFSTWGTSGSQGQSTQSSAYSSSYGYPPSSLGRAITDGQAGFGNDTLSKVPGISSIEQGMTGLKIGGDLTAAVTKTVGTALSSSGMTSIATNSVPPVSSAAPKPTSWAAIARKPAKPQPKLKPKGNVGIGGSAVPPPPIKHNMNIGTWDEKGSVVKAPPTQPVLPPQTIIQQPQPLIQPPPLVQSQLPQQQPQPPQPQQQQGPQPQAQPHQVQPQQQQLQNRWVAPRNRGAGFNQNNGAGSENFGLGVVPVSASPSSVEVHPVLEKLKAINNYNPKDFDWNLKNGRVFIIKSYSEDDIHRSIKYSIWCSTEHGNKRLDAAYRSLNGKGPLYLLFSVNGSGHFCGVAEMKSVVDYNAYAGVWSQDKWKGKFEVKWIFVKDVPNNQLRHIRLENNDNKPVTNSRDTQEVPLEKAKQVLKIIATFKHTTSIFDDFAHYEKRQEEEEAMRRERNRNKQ

[4] = target: T4, YTHDF1, endogenous (human (endogenous in HEK293T)) (UniProt Q9BYJ9); experiment: as above
T4 sequence: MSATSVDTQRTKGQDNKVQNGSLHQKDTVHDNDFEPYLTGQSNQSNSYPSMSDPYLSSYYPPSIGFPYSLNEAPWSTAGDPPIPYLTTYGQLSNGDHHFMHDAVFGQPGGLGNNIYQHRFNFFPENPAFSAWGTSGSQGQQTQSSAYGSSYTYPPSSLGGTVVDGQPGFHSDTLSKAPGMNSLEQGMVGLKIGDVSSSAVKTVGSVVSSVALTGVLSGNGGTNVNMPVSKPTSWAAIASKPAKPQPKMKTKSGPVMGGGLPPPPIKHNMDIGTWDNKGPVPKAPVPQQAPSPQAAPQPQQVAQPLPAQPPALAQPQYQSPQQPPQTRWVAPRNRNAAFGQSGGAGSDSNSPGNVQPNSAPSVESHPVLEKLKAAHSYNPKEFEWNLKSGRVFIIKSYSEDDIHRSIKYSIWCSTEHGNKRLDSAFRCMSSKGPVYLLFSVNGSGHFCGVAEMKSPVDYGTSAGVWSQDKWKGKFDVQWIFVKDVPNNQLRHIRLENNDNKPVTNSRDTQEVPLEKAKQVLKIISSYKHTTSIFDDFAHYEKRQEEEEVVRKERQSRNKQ

Measured: binding

eukaryotic translation elongation factor 1 alpha 1 (eEF1A1), endogenous (from UniProt P68104 1-462)
no binding: all assays above

dynactin 1 (DCTN1), endogenous (from UniProt Q14203 1-1278)
no binding: all assays above

B1: upstream frameshift 1 (UPF1), endogenous (protein, UniProt Q92900 1-1129)
chain: MSVEAYGPSSQTLTFLDTEEAELLGADTQGSEFEFTDFTLPSQTQTPPGGPGGPGGGGAGGPGGAGAGAAAGQLDAQVGPEGILQNGAVDDSVAKTSQLLAELNFEEDEEDTYYTKDLPIHACSYCGIHDPACVVYCNTSKKWFCNGRGNTSGSHIVNHLVRAKCKEVTLHKDGPLGETVLECYNCGCRNVFLLGFIPAKADSVVVLLCRQPCASQSSLKDINWDSSQWQPLIQDRCFLSWLVKIPSEQEQLRARQITAQQINKLEELWKENPSATLEDLEKPGVDEEPQHVLLRYEDAYQYQNIFGPLVKLEADYDKKLKESQTQDNITVRWDLGLNKKRIAYFTLPKTDSGNEDLVIIWLRDMRLMQGDEICLRYKGDLAPLWKGIGHVIKVPDNYGDEIAIELRSSVGAPVEVTHNFQVDFVWKSTSFDRMQSALKTFAVDETSVSGYIYHKLLGHEVEDVIIKCQLPKRFTAQGLPDLNHSQVYAVKTVLQRPLSLIQGPPGTGKTVTSATIVYHLARQGNGPVLVCAPSNIAVDQLTEKIHQTGLKVVRLCAKSREAIDSPVSFLALHNQIRNMDSMPELQKLQQLKDETGELSSADEKRYRALKRTAERELLMNADVICCTCVGAGDPRLAKMQFRSILIDESTQATEPECMVPVVLGAKQLILVGDHCQLGPVVMCKKAAKAGLSQSLFERLVVLGIRPIRLQVQYRMHPALSAFPSNIFYEGSLQNGVTAADRVKKGFDFQWPQPDKPMFFYVTQGQEEIASSGTSYLNRTEAANVEKITTKLLKAGAKPDQIGIITPYEGQRSYLVQYMQFSGSLHTKLYQEVEIASVDAFQGREKDFIILSCVRANEHQGIGFLNDPRRLNVALTRARYGVIIVGNPKALSKQPLWNHLLNYYKEQKVLVEGPLNNLRESLMQFSKPRKLVNTINPGARFMTTAMYDAREAIIPGSVYDRSSQGRPSSMYFQTHDQIGMISAGPSHVAAMNIPIPFNLVMPPMPPPGYFGQANGPAAGRGTPKGKTGRGGRQKNRFGLPGPSQTNLPNSQASQDVASQPFSQGALTQGYISMSQPSQMSQPGLSQPELSQDSYLGDEFKSQIDVALSQDSTYQGERAYQHGGVTGLSQY
no binding: all assays above

From paper PMC10558514
